Source: PubChem BioAssay AID192 (DTP/NCI, 2004)
The list shows only some results of the screen, not a fair sample: its compounds were picked by chemical class. Not every dose and run of a compound is shown. T/C is the treated group as % of the vehicle group. Some entries give survivors of the animals treated and no T/C: the source holds a T/C of zero for them, seemingly a mark for toxic or unscored doses. Some doses without a T/C left all or most animals alive at the check, yet need not have been tolerated: the source hardly ever lists a survival T/C far under the control, and the zero likely stands for such cases as well. Survivors were counted at the toxicity check, usually on the fifth day, unless a day is given; later deaths do not show. Schedule codes are those of the source, taken here to give the interval after Q, in days (D) or hours (H), and the number of doses after X. Some doses were run more than once; their values stand side by side, smallest first. Where survival is the endpoint, this PubChem deposit counts one and a half times the control or more as active, and values a quarter to a half above the control carry no call in these data; other NCI protocols may use other cut-offs. Some T/C values are followed by the survivors on the day toxicity was checked, most often the fifth; where neither a count nor a note follows, no animal had died by that day. Some entries show no survivor count and are marked so; the dose need not have been tolerated.

System: BDF1 mice, B16 melanoma ip, median survival T/C
Assay: NCI In Vivo Anticancer Drug Screen. Data for tumor model B16 Melanoma (intraperitoneal) in B6D2F1 (BDF1) mice
Settings: T/C endpoint: median survival time, higher T/C = longer survival
Experimental: The antitumor activity of compounds was measured in mice bearing transplantable tumors. Survival or tumor size were measured and the results are expressed as the measurement made in the treated group (T) divided by the measurement made in the vehicle treated control group (C). The tumor model used in this assay is B16 Melanoma (intraperitoneal) in B6D2F1 (BDF1) mice

[1] = dose: 0.13 mg/kg/injection, schedule: Q01DX009 (ip), vehicle: Klucel (hydroxypropylcellulose) (HPC)
[2] = dose: 0.25 mg/kg/injection, schedule: Q01DX009 (ip), vehicle: Klucel (hydroxypropylcellulose) (HPC)
[3] = dose: 0.5 mg/kg/injection, schedule: Q01DX009 (ip), vehicle: Klucel (hydroxypropylcellulose) (HPC)
[4] = dose: 1.0 mg/kg/injection, schedule: Q01DX009 (ip), vehicle: Klucel (hydroxypropylcellulose) (HPC)
[5] = dose: 2.0 mg/kg/injection, schedule: Q01DX009 (ip), vehicle: Klucel (hydroxypropylcellulose) (HPC)
[6] = dose: 2.0 mg/kg/injection, schedule: Q01DX009 (ip), vehicle: saline
[7] = dose: 4.0 mg/kg/injection, schedule: Q01DX009 (ip), vehicle: Klucel (hydroxypropylcellulose) (HPC)
[8] = dose: 50.0 mg/kg/injection, schedule: Q01DX009 (ip), vehicle: saline
[9] = dose: 6.25 mg/kg/injection, schedule: Q01DX009 (ip), vehicle: Klucel (hydroxypropylcellulose) (HPC)
[10] = dose: 12.5 mg/kg/injection, schedule: Q01DX009 (ip), vehicle: Klucel (hydroxypropylcellulose) (HPC)
[11] = dose: 25.0 mg/kg/injection, schedule: Q01DX009 (ip), vehicle: Klucel (hydroxypropylcellulose) (HPC)

SMILES: Nc1ccc(N(CCCl)CCCl)cc1
- T/C [1]: 104 % of control
- T/C [2]: 93 % of control
- T/C (dose: 0.25 mg/kg/injection, schedule: Q01DX009 (ip), vehicle: saline): 100 and 114 % of control
- T/C [3]: 106 % of control
- T/C (dose: 0.5 mg/kg/injection, schedule: Q01DX009 (ip), vehicle: saline): 125 and 127 % of control [8 of 10 alive]
- T/C [4]: 124 % of control
- T/C (dose: 1.0 mg/kg/injection, schedule: Q01DX009 (ip), vehicle: saline): 139 and 145 % of control
- T/C [5]: 120 % of control
- T/C [6]: 175 % of control
- survivor count [6]: 10 of 10
- survivor count [7]: 7 of 8
- survivor count (dose: 4.0 mg/kg/injection, schedule: Q01DX009 (ip), vehicle: saline): 10 of 10
- survivor count (dose: 8.0 mg/kg/injection, schedule: Q01DX009 (ip), vehicle: saline): 4 of 10 and 10 of 10

SMILES: N/C(=N\[N+](=O)[O-])N(CCO[N+](=O)[O-])N=O
- T/C (dose: 12.5 mg/kg/injection, schedule: Q01DX009 (ip), vehicle: saline with Tween-80): 138 % of control [survivor count not shown]
- T/C (dose: 25.0 mg/kg/injection, schedule: Q01DX009 (ip), vehicle: saline with Tween-80): 164 % of control [survivor count not shown]

SMILES: CC[C@H](C)[C@@H]1NC(=O)/C(=C(\C)O)C1=O
- T/C (dose: 12.5 mg/kg/injection, schedule: Q01DX009 (ip), vehicle: saline): 97 % of control
- T/C (dose: 12.5 mg/kg/injection, schedule: Q04DX003 (ip), vehicle: saline): 107 % of control
- T/C (dose: 25.0 mg/kg/injection, schedule: Q01DX009 (ip), vehicle: saline): 94 % of control
- T/C (dose: 25.0 mg/kg/injection, schedule: Q04DX003 (ip), vehicle: saline): 96 % of control
- T/C [8]: 100 % of control
- T/C (dose: 50.0 mg/kg/injection, schedule: Q04DX003 (ip), vehicle: saline): 103 % of control [6 of 8 alive]
- survivor count (dose: 100.0 mg/kg/injection, schedule: Q04DX003 (ip), vehicle: saline): 3 of 8
- survivor count (dose: 200.0 mg/kg/injection, schedule: Q04DX003 (ip), vehicle: saline): 0 of 8

SMILES: FC1(F)SC2C3CCC(C3)C2C1(F)Cl (configuration not stated)
- T/C (dose: 0.62 mg/kg/injection, schedule: Q01DX009 (ip), vehicle: Klucel (hydroxypropylcellulose) (HPC)): 91 % of control [9 of 10 alive]
- T/C (dose: 1.25 mg/kg/injection, schedule: Q01DX009 (ip), vehicle: Klucel (hydroxypropylcellulose) (HPC)): 100 % of control
- T/C (dose: 2.5 mg/kg/injection, schedule: Q01DX009 (ip), vehicle: Klucel (hydroxypropylcellulose) (HPC)): 99 and 103 % of control [9 of 10 alive]
- survivor count (dose: 5.0 mg/kg/injection, schedule: Q01DX009 (ip), vehicle: Klucel (hydroxypropylcellulose) (HPC)): 2 of 10
- survivor count (dose: 10.0 mg/kg/injection, schedule: Q01DX009 (ip), vehicle: Klucel (hydroxypropylcellulose) (HPC)): 4 of 10

SMILES: Cc1ccc(N(CCCl)CCCl)cc1C
- T/C [9]: 119 % of control
- T/C [10]: 136 % of control
- T/C [11]: 140 % of control
- T/C (dose: 50.0 mg/kg/injection, schedule: Q01DX009 (ip), vehicle: Klucel (hydroxypropylcellulose) (HPC)): 167 % of control
- survivor count (dose: 100.0 mg/kg/injection, schedule: Q01DX009 (ip), vehicle: Klucel (hydroxypropylcellulose) (HPC)): 10 of 10
- survivor count (dose: 200.0 mg/kg/injection, schedule: Q01DX009 (ip), vehicle: Klucel (hydroxypropylcellulose) (HPC)): 8 of 10

SMILES: CCCC1OP(N)(=O)OCC1CC (configuration not stated)
- T/C (dose: 100.0 mg/kg/injection, schedule: Q01DX009 (ip), vehicle: saline with Tween-80): 100 % of control
- T/C (dose: 200.0 mg/kg/injection, schedule: Q01DX009 (ip), vehicle: saline with Tween-80): 96 % of control
- T/C (dose: 400.0 mg/kg/injection, schedule: Q01DX009 (ip), vehicle: saline with Tween-80): 98 % of control

SMILES: CC1CCN(CCCOC(=O)C(O)(c2ccccc2)c2ccccc2)CCN1C (configuration not stated)
- T/C (dose: 1.56 mg/kg/injection, schedule: Q01DX009 (ip), vehicle: saline): 118 % of control
- T/C (dose: 3.12 mg/kg/injection, schedule: Q01DX009 (ip), vehicle: saline): 102 % of control

SMILES: COc1cc2c(c3oc4cccc(O)c4c(=O)c13)[C@@H]1C=CO[C@@H]1O2
- T/C (dose: 3.75 mg/kg/injection, schedule: Q01DX009 (ip), vehicle: Klucel (hydroxypropylcellulose) (HPC)): 113 % of control
- T/C (dose: 4.0 mg/kg/injection, schedule: Q01DX009 (ip), vehicle: saline with Tween-80): 101 % of control
- T/C (dose: 7.5 mg/kg/injection, schedule: Q01DX009 (ip), vehicle: Klucel (hydroxypropylcellulose) (HPC)): 124 % of control
- T/C (dose: 8.0 mg/kg/injection, schedule: Q01DX009 (ip), vehicle: saline with Tween-80): 102 % of control [9 of 10 alive]
- T/C (dose: 15.0 mg/kg/injection, schedule: Q01DX009 (ip), vehicle: Klucel (hydroxypropylcellulose) (HPC)): 129 % of control
- T/C (dose: 16.0 mg/kg/injection, schedule: Q01DX009 (ip), vehicle: saline with Tween-80): 122 % of control
- T/C (dose: 30.0 mg/kg/injection, schedule: Q01DX009 (ip), vehicle: Klucel (hydroxypropylcellulose) (HPC)): 146 % of control
- T/C (dose: 32.0 mg/kg/injection, schedule: Q01DX009 (ip), vehicle: saline with Tween-80): 125 % of control
- survivor count (dose: 60.0 mg/kg/injection, schedule: Q01DX009 (ip), vehicle: Klucel (hydroxypropylcellulose) (HPC)): 10 of 10
- T/C (dose: 64.0 mg/kg/injection, schedule: Q01DX009 (ip), vehicle: saline with Tween-80): 145 % of control
- T/C (dose: 128.0 mg/kg/injection, schedule: Q01DX009 (ip), vehicle: saline with Tween-80): 93 % of control

SMILES: Cc1cc(N(CCCl)CCCl)ccc1N
- T/C [1]: 107 % of control
- T/C [2]: 108 % of control
- T/C [3]: 119 % of control
- T/C [4]: 128 % of control
- T/C [5]: 142 % of control
- survivor count [7]: 10 of 10

SMILES: NC(=O)c1cn[nH]c1/N=N/N(CCCl)CCCl
- T/C [8]: 110 % of control
- T/C (dose: 100.0 mg/kg/injection, schedule: Q01DX009 (ip), vehicle: saline): 121 % of control
- survivor count (dose: 200.0 mg/kg/injection, schedule: Q01DX009 (ip), vehicle: saline): 4 of 6
- survivor count (dose: 400.0 mg/kg/injection, schedule: Q01DX009 (ip), vehicle: saline): 0 of 6

SMILES: F[As-](F)(F)(F)(F)F.c1ccc([As+](c2ccccc2)(c2ccccc2)c2ccccc2)cc1
- T/C (dose: 50.0 mg/kg/injection, schedule: Q04DX003 (ip), vehicle: Klucel (hydroxypropylcellulose) (HPC)): 92 % of control [9 of 10 alive]
- T/C (dose: 100.0 mg/kg/injection, schedule: Q04DX003 (ip), vehicle: Klucel (hydroxypropylcellulose) (HPC)): 127 % of control
- T/C (dose: 200.0 mg/kg/injection, schedule: Q04DX003 (ip), vehicle: Klucel (hydroxypropylcellulose) (HPC)): 123 % of control [9 of 10 alive]
- T/C (dose: 400.0 mg/kg/injection, schedule: Q04DX003 (ip), vehicle: Klucel (hydroxypropylcellulose) (HPC)): 123 % of control [8 of 10 alive]

SMILES: C[N+](C)(C)c1ccccc1.F[P-](F)(F)(F)(F)F
- T/C [9]: 100 % of control [8 of 10 alive]
- T/C [10]: 103 % of control
- T/C [11]: 100 % of control [9 of 10 alive]
